Counter-ions that a name gives are not always drawn. The list shows a part of the results. Repeats in this data set agree poorly, so a single value says little.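 ReNCell VM, a human fetal ventral-midbrain neural progenitor line, was differentiated without mitogens. Blinded raters scored images stained for doublecortin (early neurons) or tyrosine hydroxylase (dopaminergic neurons) against untreated wells (0 = no change). Scores were averaged across repeats and both raters, and compounds averaging 2 or more were selected as hits for retesting.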
What was measured:
[1] = tested on: ReNCell VM; experiment: neuronal differentiation score (DCX+ cell fraction vs untreated, manual image score) (score (-3 to 3)); higher = more neuronal differentiation; conditions: 2 uM, 2 weeks
[2] = tested on: ReNCell VM; experiment: dopaminergic neuron differentiation score (TH+ cell fraction vs untreated, manual image score) (score (0 to 3)); higher = more TH+ dopaminergic neuron differentiation; conditions: 2 uM, 4 weeks, BDNF 10 ng/ml + GDNF 10 ng/ml

## CC[N+](C)(CC)CCOC(=O)C1c2ccccc2Oc2ccccc21 [Methantheline bromide]
[1]; library: Prestwick
  neuronal differentiation score: inactive: 0
[2]; library: Prestwick
  dopaminergic neuron differentiation score: inactive: 1

## CCCCC1(COC(=O)CCC(=O)O)C(=O)N(c2ccccc2)N(c2ccccc2)C1=O [Suxibuzone]
[1]; library: Prestwick
  neuronal differentiation score: inactive: 0
[2]; library: Prestwick
  dopaminergic neuron differentiation score: inactive: 0

## O=c1ccc2ccc(O)cc2o1
[1]; library: Spectrum
  neuronal differentiation score: inactive: 0
[2]; library: Spectrum
  dopaminergic neuron differentiation score: inactive: 0

## C[C@]12CC[C@H]3C(=CCc4cc(O)ccc43)[C@@H]1CCC2=O [Equilin]
[1]; library: Prestwick
  neuronal differentiation score: inactive: 0
[2]; library: Prestwick
  dopaminergic neuron differentiation score: inactive: 0

## CCC(=O)OCC(=O)[C@@]1(OC(=O)CC)[C@@H](C)C[C@H]2[C@@H]3CCC4=CC(=O)C=C[C@]4(C)[C@@]3(Cl)[C@@H](O)C[C@@]21C
[1]; library: Spectrum
  neuronal differentiation score: inactive: 0
[2]; library: Spectrum
  dopaminergic neuron differentiation score: inactive: 0

## CC(=O)c1c(O)cc(O)cc1O
[1]; library: Spectrum
  neuronal differentiation score: inactive: 0
[2]; library: Spectrum
  dopaminergic neuron differentiation score: inactive: 0

## COc1c(O)cc(O)cc1O
[1]; library: Spectrum
  neuronal differentiation score: inactive: 0
[2]; library: Spectrum
  dopaminergic neuron differentiation score: inactive: 0

## Cc1ccc(NC(=O)c2cccc(N(C)C)c2)cc1NC(=O)c1ccc(O)cc1
[1]; library: Tocriscreen
  neuronal differentiation score: inactive: 0
[2]; library: Tocriscreen
  dopaminergic neuron differentiation score: inactive: 0

## CCCCCCCN(CC)CCCC(O)c1ccc(NS(C)(=O)=O)cc1 (centres undefined) [Ibutilide fumarate]
[1]; library: Prestwick
  neuronal differentiation score: inactive: 0
[2]; library: Prestwick
  dopaminergic neuron differentiation score: inactive: 0

## O=C1C[C@@H](c2ccc(O[C@@H]3O[C@H](CO)[C@@H](O)[C@H](O)[C@H]3O)cc2)Oc2cc(O)ccc21 [liquiritin]
[1]; library: Natural
  neuronal differentiation score: inactive: 0
[2]; library: Natural
  dopaminergic neuron differentiation score: inactive: 0

## COc1ccc(C(=O)Oc2ccc3c(-c4ccc(OC)cc4)cc(=O)oc3c2)cc1
[1]; library: Natural
  neuronal differentiation score: inactive: 0
[2]; library: Natural
  dopaminergic neuron differentiation score: inactive: 0

## CC(C)=CCc1c2c(c3occ(-c4ccc(O)cc4)c(=O)c3c1O)C=CC(C)(C)O2
[1]; library: Spectrum
  neuronal differentiation score: inactive: 0
[2]; library: Spectrum
  dopaminergic neuron differentiation score: inactive: 0

## Nc1ccc(O)c(C(=O)O)c1 [Mesalamine]
[1]; library: Prestwick
  neuronal differentiation score: inactive: 0
[2]; library: Prestwick
  dopaminergic neuron differentiation score: inactive: 0

## COc1ccc(-c2coc3cc(O)ccc3c2=O)cc1
[1]; library: Spectrum
  neuronal differentiation score: inactive: 0
[2]; library: Spectrum
  dopaminergic neuron differentiation score: inactive: 0

## C[n+]1cc2c3c(ccc2c2ccc4cc5c(cc4c21)OCO5)OCO3 [sanguinarine]
[1]; library: Natural
  neuronal differentiation score: inactive: 0
[2]; library: Natural
  dopaminergic neuron differentiation score: inactive: 0

## CN1CCc2c(c3ccccc3n2Cc2ccccc2)C1
[1]; library: Spectrum
  neuronal differentiation score: inactive: 0
[2]; library: Spectrum
  dopaminergic neuron differentiation score: inactive: 0

## COc1ccc(C2CC(c3c(O)cc(C)oc3=O)=NCCS2)c(OC)c1 (centres undefined)
[1]; library: Tocriscreen
  neuronal differentiation score: inactive: 0
[2]; library: Tocriscreen
  dopaminergic neuron differentiation score: inactive: 0

From the supplement of paper PMC4635364
